The supplement of paper PMC8728848
The other results are listed elsewhere or left out.

Experiments:
Assay in all cases: glycan array binding signal (z-score within array); higher = stronger binding
Conditions in all cases: glycan notation: IUPAC condensed, linker removed
[1] = molecular target: GlcNAc(b1-4)GlcNAc(b1-4)GlcNAc(b1-4)GlcNAc(b1-4)GlcNAc
Method in brief: (§1)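 Glycan array binding is given as a within-array Z-score, which can be read as non-binding when negative. The arrays, 3228 of them, came from the Consortium for Functional Glycomics database and were retained only where the protein sequence was available. Z-scores were averaged across arrays of the same protein sequence at different concentrations or buffers and across linkers.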

[2] = molecular target: GlcNAc(b1-4)GlcNAc(b1-4)GlcNAc(b1-4)GlcNAc(b1-4)GlcNAc(b1-4)GlcNAc
Method in brief: as §1

[3] = molecular target: GlcNAc(b1-4)[GlcNAc(b1-6)]GalNAc
Method in brief: as §1

[4] = molecular target: GlcNAc(b1-6)Gal(b1-4)GlcNAc
Method in brief: as §1

GlcNAc(b1-6)GalNAc = molecular target: GlcNAc(b1-6)GalNAc
Method in brief: as §1

[5] = molecular target: GlcNAc6S(b1-3)Gal(b1-4)GlcNAc
Method in brief: as §1

Kdn(a2-3)Gal(b1-3)GalNAc = molecular target: Kdn(a2-3)Gal(b1-3)GalNAc
Method in brief: as §1

Kdn(a2-3)Gal(b1-3)GlcNAc = molecular target: Kdn(a2-3)Gal(b1-3)GlcNAc
Method in brief: as §1

Kdn(a2-3)Gal(b1-4)Glc = molecular target: Kdn(a2-3)Gal(b1-4)Glc
Method in brief: as §1

Kdn(a2-3)Gal(b1-4)GlcNAc = molecular target: Kdn(a2-3)Gal(b1-4)GlcNAc
Method in brief: as §1

[6] = molecular target: Kdn(a2-3)Gal(b1-4)[Fuc(a1-3)]GlcNAc
Method in brief: as §1

Kdn(a2-6)Gal(b1-4)GlcNAc = molecular target: Kdn(a2-6)Gal(b1-4)GlcNAc
Method in brief: as §1

[7] = molecular target: Man(a1-2)Man(a1-2)Man(a1-3)Man
Method in brief: as §1

[8] = molecular target: Man(a1-2)Man(a1-2)Man(a1-6)[Man(a1-3)]Man
Method in brief: as §1

Man(a1-2)Man(a1-3)Man = molecular target: Man(a1-2)Man(a1-3)Man
Method in brief: as §1

[9] = molecular target: Man(a1-2)Man(a1-3)[Man(a1-2)Man(a1-6)]Man
Method in brief: as §1

[10] = molecular target: Man(a1-2)Man(a1-3)[Man(a1-2)Man(a1-6)]Man(a1-6)[Man(a1-2)Man(a1-2)Man(a1-3)]Man
Method in brief: as §1

[11] = molecular target: Man(a1-2)Man(a1-3)[Man(a1-2)Man(a1-6)]Man(a1-6)[Man(a1-2)Man(a1-2)Man(a1-3)]Man(b1-4)GlcNAc(b1-4)GlcNAc
Method in brief: as §1

[12] = molecular target: Man(a1-2)Man(a1-3)[Man(a1-6)]Man(a1-6)[Man(a1-2)Man(a1-3)]Man(b1-4)GlcNAc(b1-4)GlcNAc
Method in brief: as §1

[13] = molecular target: Man(a1-2)Man(a1-6)[Man(a1-3)]Man(a1-6)[Man(a1-2)Man(a1-2)Man(a1-3)]Man
Method in brief: as §1

[14] = molecular target: Man(a1-2)Man(a1-6)[Man(a1-3)]Man(a1-6)[Man(a1-2)Man(a1-2)Man(a1-3)]Man(b1-4)GlcNAc(b1-4)GlcNAc
Method in brief: as §1

Man(a1-3)[Man(a1-6)]Man = molecular target: Man(a1-3)[Man(a1-6)]Man
Method in brief: as §1

[15] = molecular target: Man(a1-3)[Man(a1-6)]Man(a1-6)[Man(a1-2)Man(a1-3)]Man(b1-4)GlcNAc(b1-4)GlcNAc
Method in brief: as §1

[16] = molecular target: Man(a1-3)[Man(a1-6)]Man(a1-6)[Man(a1-3)]Man
Method in brief: as §1

[17] = molecular target: Man(a1-3)[Man(a1-6)]Man(a1-6)[Man(a1-3)]Man(b1-4)GlcNAc(b1-4)GlcNAc
Method in brief: as §1

[18] = molecular target: Man(a1-3)[Man(a1-6)]Man(b1-4)GlcNAc(b1-4)GlcNAc
Method in brief: as §1

[19] = molecular target: Man(a1-3)[Man(a1-6)]Man(b1-4)GlcNAc(b1-4)[Fuc(a1-6)]GlcNAc
Method in brief: as §1

Man(a1-6)Man = molecular target: Man(a1-6)Man
Method in brief: as §1

Man(b1-4)GlcNAc = molecular target: Man(b1-4)GlcNAc
Method in brief: as §1

MurNAc(b1-4)GlcNAc = molecular target: MurNAc(b1-4)GlcNAc
Method in brief: as §1

Neu5Ac(a2-3)Gal = molecular target: Neu5Ac(a2-3)Gal
Method in brief: as §1

[20] = molecular target: Neu5Ac(a2-3)Gal(b1-3)GalNAc
Method in brief: as §1

[21] = molecular target: Neu5Ac(a2-3)Gal(b1-3)GalNAc(b1-3)Gal(a1-4)Gal(b1-4)Glc
Method in brief: as §1

[22] = molecular target: Neu5Ac(a2-3)Gal(b1-3)GalNAc(b1-4)[Neu5Ac(a2-3)]Gal(b1-4)Glc
Method in brief: as §1

[23] = molecular target: Neu5Ac(a2-3)Gal(b1-3)GalNAc(b1-4)[Neu5Ac(a2-8)Neu5Ac(a2-3)]Gal(b1-4)Glc
Method in brief: as §1

[24] = molecular target: Neu5Ac(a2-3)Gal(b1-3)GalNAc6S
Method in brief: as §1

[25] = molecular target: Neu5Ac(a2-3)Gal(b1-3)GlcNAc
Method in brief: as §1

[26] = molecular target: Neu5Ac(a2-3)Gal(b1-3)GlcNAc(b1-2)Man
Method in brief: as §1

[27] = molecular target: Neu5Ac(a2-3)Gal(b1-3)GlcNAc(b1-2)Man(a1-3)[GlcNAc(b1-4)][Neu5Ac(a2-3)Gal(b1-3)GlcNAc(b1-2)Man(a1-6)]Man(b1-4)GlcNAc(b1-4)GlcNAc
Method in brief: as §1

[28] = molecular target: Neu5Ac(a2-3)Gal(b1-3)GlcNAc(b1-2)Man(a1-3)[Neu5Ac(a2-3)Gal(b1-3)GlcNAc(b1-2)Man(a1-6)]Man(b1-4)GlcNAc(b1-4)GlcNAc
Method in brief: as §1

[29] = molecular target: Neu5Ac(a2-3)Gal(b1-3)GlcNAc(b1-3)Gal(b1-3)GlcNAc
Method in brief: as §1

[30] = molecular target: Neu5Ac(a2-3)Gal(b1-3)GlcNAc(b1-3)Gal(b1-4)GlcNAc
Method in brief: as §1

[31] = molecular target: Neu5Ac(a2-3)Gal(b1-3)GlcNAc(b1-3)GalNAc
Method in brief: as §1

[32] = molecular target: Neu5Ac(a2-3)Gal(b1-3)GlcNAc(b1-4)Gal(b1-4)Glc
Method in brief: as §1

[33] = molecular target: Neu5Ac(a2-3)Gal(b1-3)GlcNAc(b1-6)GalNAc
Method in brief: as §1

B1: Ovorubin (Pomacea canaliculata), J7I2T6 (protein)
chain: MFVATSLLLAIATLVVRASPHNYLIMDIEPPKSVSERDILNLLSPLQVKHSFRVTGSTRLLIVIRLDAQSYEKLDEITVPGKVEVIPAVNMADTMERCGVSWPRVELTDDNVTLFESESTLTDVTKEQLKAMLIGYGEHMSGLLQAHRFEYYQAAGATPHRHFVFVNSVPDEIEVFGREGVDIWGGPGEFVVKPQYVTRI
[1]
  glycan array binding signal (z-score): 0.711
[2]
  glycan array binding signal (z-score): -0.236
[3]
  glycan array binding signal (z-score): -1.01
[4]
  glycan array binding signal (z-score): -0.075
GlcNAc(b1-6)GalNAc
  glycan array binding signal (z-score): -0.372
[5]
  glycan array binding signal (z-score): -0.605
Kdn(a2-3)Gal(b1-3)GalNAc
  glycan array binding signal (z-score): -0.484
Kdn(a2-3)Gal(b1-3)GlcNAc
  glycan array binding signal (z-score): -1.13
Kdn(a2-3)Gal(b1-4)Glc
  glycan array binding signal (z-score): -0.012
Kdn(a2-3)Gal(b1-4)GlcNAc
  glycan array binding signal (z-score): -0.483
[6]
  glycan array binding signal (z-score): -0.422
Kdn(a2-6)Gal(b1-4)GlcNAc
  glycan array binding signal (z-score): -0.773
[7]
  glycan array binding signal (z-score): -0.133
[8]
  glycan array binding signal (z-score): -0.491
Man(a1-2)Man(a1-3)Man
  glycan array binding signal (z-score): 0.255
[9]
  glycan array binding signal (z-score): -0.202
[10]
  glycan array binding signal (z-score): -0.482
[11]
  glycan array binding signal (z-score): -0.051
[12]
  glycan array binding signal (z-score): -0.828
[13]
  glycan array binding signal (z-score): -0.368
[14]
  glycan array binding signal (z-score): -0.082
Man(a1-3)[Man(a1-6)]Man
  glycan array binding signal (z-score): -0.092
[15]
  glycan array binding signal (z-score): -0.9
[16]
  glycan array binding signal (z-score): -0.847
[17]
  glycan array binding signal (z-score): 0.132
[18]
  glycan array binding signal (z-score): -0.292
[19]
  glycan array binding signal (z-score): -0.155
Man(a1-6)Man
  glycan array binding signal (z-score): -0.373
Man(b1-4)GlcNAc
  glycan array binding signal (z-score): -0.489
MurNAc(b1-4)GlcNAc
  glycan array binding signal (z-score): -0.33
Neu5Ac(a2-3)Gal
  glycan array binding signal (z-score): -0.761
[20]
  glycan array binding signal (z-score): -0.752
[21]
  glycan array binding signal (z-score): 1.31
[22]
  glycan array binding signal (z-score): 0.78
[23]
  glycan array binding signal (z-score): -0.294
[24]
  glycan array binding signal (z-score): -0.28
[25]
  glycan array binding signal (z-score): 0.759
[26]
  glycan array binding signal (z-score): 0.619
[27]
  glycan array binding signal (z-score): -0.978
[28]
  glycan array binding signal (z-score): 0.486
[29]
  glycan array binding signal (z-score): -0.712
[30]
  glycan array binding signal (z-score): -0.697
[31]
  glycan array binding signal (z-score): 0.142
[32]
  glycan array binding signal (z-score): -0.65
[33]
  glycan array binding signal (z-score): -0.145
